Consider four molecules from PMC1540706.

Chains of the proteins cited; added tags and fusions are not shown. Lines headed by an entry give the natural chain unless they say otherwise; changes in a name come on top.
UniProt P63010: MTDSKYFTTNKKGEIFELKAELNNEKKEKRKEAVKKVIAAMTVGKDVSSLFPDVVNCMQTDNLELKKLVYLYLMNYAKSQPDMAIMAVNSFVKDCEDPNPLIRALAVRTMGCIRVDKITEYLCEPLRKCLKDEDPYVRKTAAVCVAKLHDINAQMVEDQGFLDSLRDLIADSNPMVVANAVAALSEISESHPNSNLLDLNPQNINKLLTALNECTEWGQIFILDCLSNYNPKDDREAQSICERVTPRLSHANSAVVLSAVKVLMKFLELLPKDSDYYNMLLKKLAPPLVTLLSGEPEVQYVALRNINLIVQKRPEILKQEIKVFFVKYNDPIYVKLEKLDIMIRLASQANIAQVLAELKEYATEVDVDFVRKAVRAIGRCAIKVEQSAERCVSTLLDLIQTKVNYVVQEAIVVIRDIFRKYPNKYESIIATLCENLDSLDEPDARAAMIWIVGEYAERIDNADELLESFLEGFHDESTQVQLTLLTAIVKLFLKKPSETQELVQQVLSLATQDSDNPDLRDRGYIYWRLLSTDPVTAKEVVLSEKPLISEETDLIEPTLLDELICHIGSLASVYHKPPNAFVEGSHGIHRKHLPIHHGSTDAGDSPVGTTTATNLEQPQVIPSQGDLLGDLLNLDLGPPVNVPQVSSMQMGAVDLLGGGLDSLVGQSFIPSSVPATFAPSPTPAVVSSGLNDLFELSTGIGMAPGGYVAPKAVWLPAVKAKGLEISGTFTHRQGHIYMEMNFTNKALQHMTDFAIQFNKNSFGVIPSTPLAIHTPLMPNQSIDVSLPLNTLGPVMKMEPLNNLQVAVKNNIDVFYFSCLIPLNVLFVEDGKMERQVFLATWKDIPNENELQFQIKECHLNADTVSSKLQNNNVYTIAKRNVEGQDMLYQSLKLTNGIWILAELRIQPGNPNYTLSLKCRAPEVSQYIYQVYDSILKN

Assay [1] addresses GST-human-β2-appendage (700–937) mutated at K719 (human) (UniProt P63010). Kind of assay: pull-down; GST fusion protein on beads in (rat) brain extract; bound proteins detected by Western blotting (Figures 2B, 5E, 6A-D); only the target purified. Background: A western blot detects proteins with antibodies after separation by electrophoresis.
In assay [2] the target is GST-mouse-α-appendage (α-earL695–983) (mouse). The assay can be described thus: SPR; BIA2000; GST-α or GST-β2 amine-coupled to a CM5 chip; 6× His hEps15-MD injected at 300 nM; 20 mM HEPES, 150 mM NaCl, pH 7.4; dissociation over 7,000 s at 20 μl/min; GST surface subtracted; both purified.
Assay [3] has as its target human β2-appendage (700–937), top site mutant used for ITC (human) (UniProt P63010). The assay can be described thus: ITC; VP-ITC; 100 mM HEPES, 50 mM NaCl, 2 mM DTT pH 7.4 at 10 °C; peptides or proteins injected from the syringe into the cell; both purified.
In assay [4] the target is human β2-appendage (700–937), side site mutant used for ITC (human) (UniProt P63010). Described as above.

No constants are given. Whether binding was seen depends on the method and setting. For some assays here: Binding calls can cover weak binding; strength is not graded here. For some assays here: Sequences can lack the tags named with a protein. For some assays here: In cells and extracts the contact can be indirect.

B1: amphiphysin (brain extract) (protein, UniProt O08838 1-683)
chain: MADIKTGIFAKNVQKRLNRAQEKVLQKLGKADETKDEQFEEYVQNFKRQEAEGTRLQRELRGYLAAIKGMQEASMKLTESLHEVYEPDWYGREDVKMVGEKCDVLWEDFHQKLVDGSLLTLDTYLGQFPDIKNRIAKRSRKLVDYDSARHHLEALQSSKRKDESRISKAEEEFQKAQKVFEEFNVDLQEELPSLWSRRVGFYVNTFKNVSSLEAKFHKEIAVLCHKLYEVMTKLGDQHADKAFSIQGAPSDSGPLRIAKTPSPPEEASPLPSPTASPNHTLAPASPAPVRPRSPSQTRKGPPVPPLPKVTPTKELQQENIINFFEDNFVPEINVTTPSQNEVLEVKKEETLLDLDFDPFKPDVTPAGSAAATHSPMSQTLPWDLWTTSTDLVQPASGGSFNDFTQPQDTSLFTMQTDQNMAETEQALPTEPQAEEPPTTAAAPTAGLDLGLEMEEPKEEAAIPPGTDAGETVGTEGSTGEEAEAEKAALPAGEGESPEGAKIDVESTELASSESPQAAELEAGAPQEKVIPSVVIEPASNHEGEEHQETTTGTETREATEDVAPQGPAGEKQELATEPTPLDSQAATPAPAGAVDASLSAGDAAQELPPGFLYKVETLHDFEAANSDELTLQRGDVVLVVPSDSEADQDAGWLVGVKESDWLQYRDLATYKGLFPENFTRHLE
As to B1, the binding entry in assay [1] is reported as “binds”.

B2: 6× His human Eps15-MD (530–791) (domain or fragment, UniProt P42566 530-791)
chain: STSSSETANLNEHVEGQSNLESEPIHQESPARSSPELLPSGVTDENEVTTAVTEKVCSELDNNRHSKEEDPFNVDSSSLTGPVADTNLDFFQSDPFVGSDPFKDDPFGKIDPFGGDPFKGSDPFASDCFFRQSTDPFATSSTDPFSAANNSSITSVETLKHNDPFAPGGTVVAASDSATDPFASVFGNESFGGGFADFSTLSKVNNEDPFRSATSSSVSNVVITKNVFEETSVKSEDEPPALPPKIGTPTRPCPLPPGKRSI
Consider B2, for which the binding result in assay [2] is “binds”.

Regarding DDDIVFEDFARQRLKGMKDD [β-arrestin P-long peptide], the figures for the binding entry in assay [3] and in assay [4] were “no binding” and “binds”, respectively.

B3: AP180 (brain extract) (protein, UniProt Q05140 1-915)
chain: MSGQTLTDRIAAAQYSVTGSAVARAVCKATTHEVMGPKKKHLDYLIQATNETNVNIPQMADTLFERATNSSWVVVFKALVTTHHLMVHGNERFIQYLASRNTLFNLSNFLDKSGSHGYDMSTFIRRYSRYLNEKAFSYRQMAFDFARVKKGADGVMRTMVPEKLLKSMPILQGQIDALLEFDVHPNELTNGVINAAFMLLFKDLIKLFACYNDGVINLLEKFFEMKKGQCKDALEIYKRFLTRMTRVSEFLKVADEVGIDKGDIPDLTQAPSSLMETLEQHLNTLEGKKPGNNEGSGAPSPLSKSSPATTVTSPNSTPAKTIDTSPPVDIFATASAAAPVSSAKPSSDLLDLQPDFSGARAGAAAPVPPPTGGATAWGDLLGEDSLAALSSVPSEAPISDPFAPEPSPPTTTTEPASASASATTAVTAATTEVDLFGDAFAASPGEAPAASEGATAPATPAPVAAALDACSGNDPFAPSEGSAEAAPELDLFAMKPPETSAPVVTPTASTAPPVPATAPSPAPTAVAATAATTTAAAAATTTATTSAAAATTAAAPPALDIFGDLFDSAPEVAAASKPDVAPSIDLFGTDAFSSPPRGASPVPESSLTADLLSGSGFHCAEDDRHVPLFFTAVDAFAAPSPASTASPAKAESSGVIDLFGDAFGSSASETQPAPQAVSSSSASADLLAGFGGSFMAPSTTPVTPAQNNLLQPNFEAAFGTTPSTSSSSSFDPSGDLLMPTMAPSGQPAPVSMVPPSPAMSASKGLGSDLDSSLASLVGNLGISGTTSKKGDLQWNAGEKKLTGGANWQPKVTPATWSAGVPPQGTVPPTSSVPPGAGAPSVGQPGAGYGMPPAGTGMTMMPQQPVMFAQPMMRPPFGAAAVPGTQLSPSPTPATQSPKKPPAKDPLADLNIKDFL
For the molecule B3, the binding entry in assay [1] was “binds”.
